In patent US10457891B2, “Organic compounds” (Givaudan, S.A., priority 2013, dated 2019):

Test: Odour description of the compound
Conditions: odour description of neat compound

| Compound | Odor |
| --- | --- |
| Cc1ccc(CCC(C)C)cc1CCC=O [Example 13, 3-(5-Isopentyl-2-methylphenyl)propanal] | floral, aldehydic, watery, metallic |
| CCC(C)(C)c1ccc(CCC=O)c(C)c1 [Example 6, 3-(2-Methyl-4-(tert-pentyl)phenyl)propanal] | floral, green, weak |
| CCC(C)c1ccc(CCC=O)c(C)c1 (centres unmarked) [Example 5, 3-(4-(sec-Butyl)-2-methylphenyl)propanal] | green, floral, marine, Lilial-like |
| Cc1ccc(CCCC(C)C)cc1CC(C)C=O (centres unmarked) [Example 16, 2-Methyl-3-(2-methyl-5-(4-methylpentyl)phenyl)propanal] | watery, aldehydic, metallic, sharp, citrus, mandarin |
| Cc1ccc(CCCC(C)C)cc1C(C)CC=O (centres unmarked) [Example 17, 3-(2-Methyl-5-(4-methylpentyl)phenyl)butanal] | weak, green, watery, floral |
| Cc1cc(CC(C)C)cc(C)c1CCC=O [Example 2, 3-(4-Isobutyl-2,6-dimethylphenyl)propanal] | floral, aldehydic, fruity, slightly rosy |
| Cc1ccc(CC(C)C)cc1CC(C)C=O (centres unmarked) [Example 15, 3-(5-Isobutyl-2-methylphenyl)-2-methylpropanal] | green, fatty, aldehydic, bisabolene-like |
| Cc1ccc(CCCC(C)C)cc1CCC=O [Example 11, 3-(2-Methyl-5-(4-methylpentyl)phenyl)propanal] | green, anisic, aldehydic, fatty |
| Cc1cc(CC(C)C)ccc1C(C)CC=O (centres unmarked) [Example 4, 3-(4-Isobutyl-2-methylphenyl)butanal] | floral, green, watery, fatty |
| Cc1ccc(C(C)C)cc1C(C)CC=O (centres unmarked) [Example 8, 3-(5-Isopropyl-2-methylphenyl)butanal] | floral fruity, slightly rosy, slightly green |
| Cc1ccc(CC(C)C)cc1CCC=O [Example 12, 3-(5-Isobutyl-2-methylphenyl)propanal] | aldehydic, floral, pungent |
| Cc1cc(CCC(C)C)ccc1CCC=O [Example 7, 3-(4-Isopentyl-2-methylphenyl)propanal] | aldehydic, floral, green, watery |
| CC(C)Cc1ccc2c(c1)CC(C=O)C2 (centres unmarked) [Example 9, 5-Isobutyl-2,3-dihydro-1H-indene-2-carbaldehyde] | aldehydic, marine, watery, floral |
| Cc1cc(CCCC(C)C)ccc1CCC=O [Example 10, 3-(2-Methyl-4-(4-methylpentyl)phenyl)propanal] | floral, green, watery |
| Cc1ccc(CCC(C)C)cc1CC(C)C=O (centres unmarked) [Example 14, 3-(5-Isopentyl-2-methylphenyl)-2-methylpropanal] | watery, aldehydic |
| Cc1cc(CC(C)C)ccc1CC(C)C=O (centres unmarked) [Example 3, 3-(4-Isobutyl-2-methylphenyl)-2-methylpropanal] | fatty, watery, floral, green, aldehydic |
| Cc1cc(CC(C)C)ccc1CCC=O [Example 1, 3-(4-isobutyl-2-methylphenyl)propanal] | floral, aldehydic, green, Lilial, watery |
